The supplement of paper PMC10849652
This is one part of the list.

Chains of the proteins cited; added tags and fusions are not shown. Lines headed by an entry give the natural chain unless they say otherwise; changes in a name come on top.
UniProt Q9BU02: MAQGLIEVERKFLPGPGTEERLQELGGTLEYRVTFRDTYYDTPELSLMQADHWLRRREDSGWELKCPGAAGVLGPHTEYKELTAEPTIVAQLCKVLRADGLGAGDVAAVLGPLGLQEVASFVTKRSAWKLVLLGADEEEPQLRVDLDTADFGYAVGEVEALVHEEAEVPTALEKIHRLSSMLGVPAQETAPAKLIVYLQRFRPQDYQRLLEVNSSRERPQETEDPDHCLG
UniProt Q96CG3: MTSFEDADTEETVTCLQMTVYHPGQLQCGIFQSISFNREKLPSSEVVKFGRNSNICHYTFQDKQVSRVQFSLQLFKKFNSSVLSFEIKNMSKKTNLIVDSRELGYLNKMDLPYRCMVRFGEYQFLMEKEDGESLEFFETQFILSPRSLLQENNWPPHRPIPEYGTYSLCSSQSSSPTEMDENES
UniProt P20226, whole entry, looked up: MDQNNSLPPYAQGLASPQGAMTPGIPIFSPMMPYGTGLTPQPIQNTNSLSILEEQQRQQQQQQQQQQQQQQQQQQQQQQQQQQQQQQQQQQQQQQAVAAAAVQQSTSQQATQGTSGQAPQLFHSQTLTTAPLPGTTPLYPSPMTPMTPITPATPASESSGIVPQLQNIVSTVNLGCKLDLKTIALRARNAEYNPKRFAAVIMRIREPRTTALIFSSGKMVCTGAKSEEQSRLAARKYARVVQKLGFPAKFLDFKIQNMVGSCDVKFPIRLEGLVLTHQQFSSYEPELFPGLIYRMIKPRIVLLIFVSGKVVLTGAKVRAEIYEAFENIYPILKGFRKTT
UniProt Q8N9U0: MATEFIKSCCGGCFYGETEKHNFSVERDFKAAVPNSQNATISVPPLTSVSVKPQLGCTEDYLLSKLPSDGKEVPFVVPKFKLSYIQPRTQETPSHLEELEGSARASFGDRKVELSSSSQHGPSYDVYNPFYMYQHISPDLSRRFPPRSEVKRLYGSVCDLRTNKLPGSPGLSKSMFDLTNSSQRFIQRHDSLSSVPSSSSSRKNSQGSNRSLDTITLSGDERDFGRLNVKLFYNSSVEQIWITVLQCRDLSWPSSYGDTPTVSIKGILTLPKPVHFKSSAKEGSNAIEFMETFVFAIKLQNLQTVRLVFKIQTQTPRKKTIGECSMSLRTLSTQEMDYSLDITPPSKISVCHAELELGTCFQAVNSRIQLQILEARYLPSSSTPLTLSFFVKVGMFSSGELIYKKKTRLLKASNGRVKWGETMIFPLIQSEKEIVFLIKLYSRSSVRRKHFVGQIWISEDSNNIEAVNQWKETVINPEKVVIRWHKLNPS
UniProt Q01664: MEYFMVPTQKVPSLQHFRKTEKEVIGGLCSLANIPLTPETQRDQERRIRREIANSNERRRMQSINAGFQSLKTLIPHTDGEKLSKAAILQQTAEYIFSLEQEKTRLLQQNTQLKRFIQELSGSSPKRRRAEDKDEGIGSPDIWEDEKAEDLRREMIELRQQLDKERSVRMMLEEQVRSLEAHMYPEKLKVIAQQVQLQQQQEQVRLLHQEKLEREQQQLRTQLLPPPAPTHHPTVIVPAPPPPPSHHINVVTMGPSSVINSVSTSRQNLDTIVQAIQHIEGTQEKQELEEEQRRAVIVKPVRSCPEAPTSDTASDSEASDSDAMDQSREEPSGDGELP
UniProt O95455: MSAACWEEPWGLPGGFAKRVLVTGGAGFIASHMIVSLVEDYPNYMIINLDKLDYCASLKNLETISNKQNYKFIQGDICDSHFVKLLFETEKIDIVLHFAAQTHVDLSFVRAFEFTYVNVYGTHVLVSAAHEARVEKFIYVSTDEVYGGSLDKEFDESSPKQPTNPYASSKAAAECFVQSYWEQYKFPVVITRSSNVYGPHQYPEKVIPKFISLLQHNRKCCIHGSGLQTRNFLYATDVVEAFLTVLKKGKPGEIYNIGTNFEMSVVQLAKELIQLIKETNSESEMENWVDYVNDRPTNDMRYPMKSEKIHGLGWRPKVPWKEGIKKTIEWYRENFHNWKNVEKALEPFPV
UniProt Q9BQ70: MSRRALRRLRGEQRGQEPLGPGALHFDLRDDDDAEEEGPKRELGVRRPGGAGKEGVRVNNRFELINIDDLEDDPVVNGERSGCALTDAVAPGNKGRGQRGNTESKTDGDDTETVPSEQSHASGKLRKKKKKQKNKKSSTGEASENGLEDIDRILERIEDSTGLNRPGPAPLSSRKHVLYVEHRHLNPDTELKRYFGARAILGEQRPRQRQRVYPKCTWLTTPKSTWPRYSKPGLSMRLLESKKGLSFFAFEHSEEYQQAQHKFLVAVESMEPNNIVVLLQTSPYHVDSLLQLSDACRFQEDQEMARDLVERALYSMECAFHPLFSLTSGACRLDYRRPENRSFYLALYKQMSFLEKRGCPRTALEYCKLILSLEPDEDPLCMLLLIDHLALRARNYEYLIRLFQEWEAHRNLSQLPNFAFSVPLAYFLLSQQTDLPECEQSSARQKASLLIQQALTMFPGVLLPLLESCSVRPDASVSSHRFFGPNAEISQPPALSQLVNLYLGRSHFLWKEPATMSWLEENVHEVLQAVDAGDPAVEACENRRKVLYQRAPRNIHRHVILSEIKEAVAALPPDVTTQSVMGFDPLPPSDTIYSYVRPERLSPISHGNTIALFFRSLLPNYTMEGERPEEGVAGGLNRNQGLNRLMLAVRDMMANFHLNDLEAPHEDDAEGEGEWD
UniProt Q8TBR7: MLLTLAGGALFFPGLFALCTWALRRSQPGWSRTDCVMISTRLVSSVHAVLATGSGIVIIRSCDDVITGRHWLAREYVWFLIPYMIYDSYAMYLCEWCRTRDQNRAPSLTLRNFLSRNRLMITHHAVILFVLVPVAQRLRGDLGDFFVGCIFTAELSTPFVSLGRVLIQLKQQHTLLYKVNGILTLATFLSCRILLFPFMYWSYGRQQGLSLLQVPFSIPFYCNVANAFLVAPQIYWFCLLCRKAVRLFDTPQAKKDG
UniProt Q8NHU6: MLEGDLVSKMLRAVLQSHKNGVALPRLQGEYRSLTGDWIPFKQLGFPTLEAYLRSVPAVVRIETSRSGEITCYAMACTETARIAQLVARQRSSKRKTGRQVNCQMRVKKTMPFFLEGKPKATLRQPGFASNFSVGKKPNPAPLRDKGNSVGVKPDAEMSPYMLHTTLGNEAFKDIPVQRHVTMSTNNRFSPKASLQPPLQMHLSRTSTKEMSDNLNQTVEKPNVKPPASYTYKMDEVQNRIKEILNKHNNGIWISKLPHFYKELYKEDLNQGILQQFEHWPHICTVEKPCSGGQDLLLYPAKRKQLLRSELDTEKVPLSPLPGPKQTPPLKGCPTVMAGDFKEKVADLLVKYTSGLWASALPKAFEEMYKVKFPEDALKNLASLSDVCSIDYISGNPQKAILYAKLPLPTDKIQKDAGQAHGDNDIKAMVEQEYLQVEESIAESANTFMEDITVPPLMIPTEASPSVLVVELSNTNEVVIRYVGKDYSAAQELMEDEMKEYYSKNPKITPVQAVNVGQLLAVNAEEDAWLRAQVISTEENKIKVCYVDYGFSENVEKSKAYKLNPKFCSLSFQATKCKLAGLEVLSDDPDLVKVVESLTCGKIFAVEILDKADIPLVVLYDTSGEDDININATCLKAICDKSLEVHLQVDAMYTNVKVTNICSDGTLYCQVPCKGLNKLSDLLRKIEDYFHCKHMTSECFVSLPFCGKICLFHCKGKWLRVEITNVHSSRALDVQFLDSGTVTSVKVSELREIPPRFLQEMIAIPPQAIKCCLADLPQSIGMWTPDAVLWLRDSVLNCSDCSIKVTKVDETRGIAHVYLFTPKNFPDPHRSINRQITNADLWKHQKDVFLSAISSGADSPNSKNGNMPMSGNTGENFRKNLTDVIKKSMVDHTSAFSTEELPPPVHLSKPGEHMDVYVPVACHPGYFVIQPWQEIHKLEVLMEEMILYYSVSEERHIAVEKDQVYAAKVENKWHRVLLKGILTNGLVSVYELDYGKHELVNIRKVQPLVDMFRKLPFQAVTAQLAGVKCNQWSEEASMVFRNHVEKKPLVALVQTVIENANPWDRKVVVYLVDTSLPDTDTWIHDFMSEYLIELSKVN
UniProt Q9H7E2: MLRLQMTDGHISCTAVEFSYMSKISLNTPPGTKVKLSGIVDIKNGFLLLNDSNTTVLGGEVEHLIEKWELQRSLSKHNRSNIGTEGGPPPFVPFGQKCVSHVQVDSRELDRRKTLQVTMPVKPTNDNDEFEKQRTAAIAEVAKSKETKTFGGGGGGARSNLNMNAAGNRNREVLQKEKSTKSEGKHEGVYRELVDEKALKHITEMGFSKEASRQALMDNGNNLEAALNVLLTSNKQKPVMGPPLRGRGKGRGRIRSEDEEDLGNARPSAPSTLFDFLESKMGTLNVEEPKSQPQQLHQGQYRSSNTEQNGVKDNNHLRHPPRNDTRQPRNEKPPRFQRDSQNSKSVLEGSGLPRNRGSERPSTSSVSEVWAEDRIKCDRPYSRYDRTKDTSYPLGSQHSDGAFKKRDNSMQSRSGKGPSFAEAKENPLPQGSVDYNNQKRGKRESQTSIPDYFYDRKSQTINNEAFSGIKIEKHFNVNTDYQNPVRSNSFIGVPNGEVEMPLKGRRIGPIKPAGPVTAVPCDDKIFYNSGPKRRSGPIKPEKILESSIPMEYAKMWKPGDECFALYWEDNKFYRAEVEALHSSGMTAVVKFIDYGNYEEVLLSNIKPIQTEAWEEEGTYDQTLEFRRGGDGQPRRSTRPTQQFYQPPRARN
UniProt Q3MII6: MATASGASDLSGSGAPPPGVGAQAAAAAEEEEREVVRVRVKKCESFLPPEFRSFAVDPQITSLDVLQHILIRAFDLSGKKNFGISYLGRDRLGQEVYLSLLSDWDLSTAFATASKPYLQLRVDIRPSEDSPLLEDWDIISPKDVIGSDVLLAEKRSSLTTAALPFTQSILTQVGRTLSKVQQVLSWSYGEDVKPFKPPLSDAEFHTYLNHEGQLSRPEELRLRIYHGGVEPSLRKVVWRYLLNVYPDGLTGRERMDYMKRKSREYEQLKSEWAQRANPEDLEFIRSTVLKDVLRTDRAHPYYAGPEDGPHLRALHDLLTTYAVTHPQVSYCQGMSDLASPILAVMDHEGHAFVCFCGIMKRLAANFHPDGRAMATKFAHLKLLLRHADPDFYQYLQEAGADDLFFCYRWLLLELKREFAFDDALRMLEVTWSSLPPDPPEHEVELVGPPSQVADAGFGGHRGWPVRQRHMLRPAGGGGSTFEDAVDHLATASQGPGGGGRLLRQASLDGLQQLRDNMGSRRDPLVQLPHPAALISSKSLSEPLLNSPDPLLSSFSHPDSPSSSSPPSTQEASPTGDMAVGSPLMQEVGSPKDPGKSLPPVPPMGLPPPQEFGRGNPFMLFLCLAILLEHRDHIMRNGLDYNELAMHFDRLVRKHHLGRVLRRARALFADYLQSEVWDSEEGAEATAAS
UniProt Q6ZT07: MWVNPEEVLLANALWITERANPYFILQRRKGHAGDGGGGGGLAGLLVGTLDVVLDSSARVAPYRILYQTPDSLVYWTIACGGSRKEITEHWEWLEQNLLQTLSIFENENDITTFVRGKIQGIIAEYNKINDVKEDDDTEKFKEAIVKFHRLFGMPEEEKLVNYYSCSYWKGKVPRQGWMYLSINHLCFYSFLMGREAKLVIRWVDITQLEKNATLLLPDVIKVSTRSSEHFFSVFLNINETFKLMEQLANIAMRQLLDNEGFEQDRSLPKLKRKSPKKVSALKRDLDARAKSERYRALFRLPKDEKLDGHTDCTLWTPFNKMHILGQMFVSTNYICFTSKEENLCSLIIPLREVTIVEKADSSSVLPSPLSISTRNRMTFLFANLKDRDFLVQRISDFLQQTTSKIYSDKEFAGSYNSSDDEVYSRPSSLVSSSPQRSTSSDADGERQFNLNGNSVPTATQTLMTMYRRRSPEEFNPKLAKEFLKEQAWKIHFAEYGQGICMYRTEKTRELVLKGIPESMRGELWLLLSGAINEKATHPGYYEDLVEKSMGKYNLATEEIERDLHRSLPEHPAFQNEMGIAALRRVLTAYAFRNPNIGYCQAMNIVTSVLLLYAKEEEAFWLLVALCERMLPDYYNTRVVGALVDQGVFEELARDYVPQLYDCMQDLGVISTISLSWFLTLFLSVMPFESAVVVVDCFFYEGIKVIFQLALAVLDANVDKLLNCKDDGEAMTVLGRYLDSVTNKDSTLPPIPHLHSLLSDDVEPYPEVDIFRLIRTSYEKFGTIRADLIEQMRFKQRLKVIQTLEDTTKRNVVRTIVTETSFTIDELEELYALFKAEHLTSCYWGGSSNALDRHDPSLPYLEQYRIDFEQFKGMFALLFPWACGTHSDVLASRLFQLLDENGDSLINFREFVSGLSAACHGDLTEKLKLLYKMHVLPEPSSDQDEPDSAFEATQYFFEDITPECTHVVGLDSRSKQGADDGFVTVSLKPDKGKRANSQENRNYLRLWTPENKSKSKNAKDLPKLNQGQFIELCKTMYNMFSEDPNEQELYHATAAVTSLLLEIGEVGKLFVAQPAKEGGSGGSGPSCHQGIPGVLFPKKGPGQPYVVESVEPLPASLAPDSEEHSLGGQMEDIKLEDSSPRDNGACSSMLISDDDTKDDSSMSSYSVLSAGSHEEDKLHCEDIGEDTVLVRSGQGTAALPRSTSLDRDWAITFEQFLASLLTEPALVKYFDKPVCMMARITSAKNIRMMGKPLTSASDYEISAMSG

compound: CCCS(=O)(=O)Nc1ccc(F)c(C(=O)c2c[nH]c3ncc(-c4ccc(Cl)cc4)cc23)c1F [vemurafenib]; assay: log2 fold change, soluble protein after heating vs DMSO (PISA); higher = thermal stabilisation; K562 cells, 10 uM, 30 min; active = over 0.2 and 3.5 SD of the protein, either way, in both replicates (recomputed)
How it was run: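 K562 cells (2×10^6 cells/mL) were treated with 10 μM compound for 30 min, and aliquots were heated for 3 min over 48°C-58°C. Pooled aliquots were extracted in PBS with 0.5% NP-40 at 4°C, and the supernatant after 21,000xg for 90 min was measured by TMTpro 16plex LC-MS/MS with channel sums equalised. Reported thermal stability, relative to control samples and from duplicates, is a log2 fold change.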

log2 fold change, inactive:
TCF3 isoform 2 (UniProt P15923) -0.129
THTPA (UniProt Q9BU02) 0.047
TIFA (UniProt Q96CG3) -0.21
TEX30 (UniProt Q5JUR7) 0.138
TBP (UniProt P20226) 0.02
TC2N (UniProt Q8N9U0) 0.063
TFAP4 (UniProt Q01664) -0.12
TGDS (UniProt O95455) -0.098
TCF25 (UniProt Q9BQ70) 0.108
TLCD3A (UniProt Q8TBR7) 0.009
TDRD7 (UniProt Q8NHU6) -0.01
TDRD3 isoform 3 (UniProt Q9H7E2) -0.017
TGM2 (UniProt A2A299) -0.153
TBC1D25 (UniProt Q3MII6) -0.054
TBC1D9 (UniProt Q6ZT07) 0.607
TCEAL4 isoform 2 (UniProt Q96EI5) 0.062

Quoted at random: 2 records from the list.
log2 fold change, inactive:
TCEAL4 isoform 2 (UniProt Q96EI5) 0.062
TBC1D25 (UniProt Q3MII6) -0.054
